Assay results as given in patent US20260070940A1.
Results are given in words; binding and its absence hold for the method and conditions named. Binding calls can cover weak binding; strength is not graded here.

Each binder was assayed against Biotinylated FAP-avi-His on Sol-R2 streptavidin beads (species not told) (assay: mix-and-read bead assay (Mirrorball), FAP-avi-His on streptavidin beads, bacterial supernatant, FITC anti-FLAG).

| binding | Binder |
| --- | --- |
| binds | SEQ ID NO 271 (VHH) VHH: EVQLVESGGGLVQPGGSLRLSCAASGFNIKDSSTYIGWVRRAPGKEEELVARIQCSSGSTRYADSVKGRFTISCDTSKNTAYLQMNSLRAEDTAVYYCAGRQSYNYGYIYWGQGTTVTVSS |
| binds | SEQ ID NO 279 (VHH) VHH: EVQLVESGGGLVQPGGSLRLSCAASGFNIKDSSTYIGWVRRAPGKEEELVARIQCSAGSTRYADSVKGRFTISCDTSKNTAYLQMNSLRAEDTAVYYCAGRSARSYSYIYWGQGTTVTVSS |

Second part, the binder before the results:

| Binder | binding |
| --- | --- |
| SEQ ID NO 265 (VHH) VHH: EVQLVESGGGLVQPGGSLRLSCAASGFNIKDTCIGWVRRAPGKEEELVANICGTTGSTRYADSVKGRFTISADTSKNTAYLQMNSLRAEDTAVYYCANSWTIYRYKYWGQGTTVTVSS | binds |
| SEQ ID NO 262 (VHH) VHH: EVQLVESGGGLVQPGGSLRLSCAASSFNIKDTYIGWVRRAPGKEEELVAKIFRCSDGRTRYADSVKGRFTISCDTSKNTAYLQMNSLRAEDTAVYYCANIYKTHYTYWGQGTTVTVSS | binds |
| SEQ ID NO 260 (VHH) VHH: EVQLVESGGGLVQPGGSLRLSCAASGFNIKDTCIGWVRRAPGKEEELVANICITDGKTRYADSVKGRFTISADTSKNTAYLQMNSLRAEDTAVYYCAYYSKYIGYRYWGQGTTVTVSS | binds |
| SEQ ID NO 261 (VHH) VHH: EVQLVESGGGLVQPGGSLRLSCAASGFNIKDTCIGWVRRAPGKEEELVANICQSGGYTRYADSVKGRFTISADTSKNTAYLQMNSLRAEDTAVYYCARYHKGVGYQYWGQGTTVTVSS | binds |
| SEQ ID NO 263 (VHH) VHH: EVQLVESGGGLVQPGGSLRLSCAASGFNIKDTCIGWVRRAPGKEEELVANICGHIGSTRYADSVKGRFTISADTSKNTAYLQMNSLRAEDTAVYYCANSYTYSYKYWGQGTTVTVSS | binds |
